From the supplement of paper PMC10849652
The other results are listed elsewhere or left out.

Amino acid sequences for entries named in this document (tags omitted). A change or cut given only in a name is not applied to a line headed by its entry.
UniProt P04004: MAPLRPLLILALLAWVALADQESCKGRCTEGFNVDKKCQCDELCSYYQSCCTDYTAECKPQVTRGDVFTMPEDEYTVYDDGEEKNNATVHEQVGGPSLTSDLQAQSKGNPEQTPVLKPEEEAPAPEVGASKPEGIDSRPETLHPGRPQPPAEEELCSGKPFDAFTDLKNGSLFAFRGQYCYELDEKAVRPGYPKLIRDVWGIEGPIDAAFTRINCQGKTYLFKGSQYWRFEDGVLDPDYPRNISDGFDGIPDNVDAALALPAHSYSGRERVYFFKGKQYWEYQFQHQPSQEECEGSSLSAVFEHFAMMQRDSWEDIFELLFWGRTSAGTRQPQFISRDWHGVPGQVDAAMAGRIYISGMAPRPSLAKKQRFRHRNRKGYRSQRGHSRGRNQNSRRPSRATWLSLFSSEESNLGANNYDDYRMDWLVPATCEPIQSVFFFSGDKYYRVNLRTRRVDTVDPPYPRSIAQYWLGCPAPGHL
UniProt Q8IV63: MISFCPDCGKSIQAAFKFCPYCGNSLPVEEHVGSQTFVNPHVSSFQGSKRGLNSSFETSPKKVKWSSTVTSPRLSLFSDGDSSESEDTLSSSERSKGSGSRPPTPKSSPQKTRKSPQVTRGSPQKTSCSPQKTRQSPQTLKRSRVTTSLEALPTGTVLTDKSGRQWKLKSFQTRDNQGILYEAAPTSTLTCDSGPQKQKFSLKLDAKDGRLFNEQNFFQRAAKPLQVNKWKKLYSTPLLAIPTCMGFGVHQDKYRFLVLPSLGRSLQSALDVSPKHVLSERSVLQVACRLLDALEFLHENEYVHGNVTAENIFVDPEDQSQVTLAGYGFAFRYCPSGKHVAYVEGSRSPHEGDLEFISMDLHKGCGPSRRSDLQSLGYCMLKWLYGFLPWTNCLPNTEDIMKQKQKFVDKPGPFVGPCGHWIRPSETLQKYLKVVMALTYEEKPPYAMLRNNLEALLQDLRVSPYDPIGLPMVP
UniProt Q8NI36: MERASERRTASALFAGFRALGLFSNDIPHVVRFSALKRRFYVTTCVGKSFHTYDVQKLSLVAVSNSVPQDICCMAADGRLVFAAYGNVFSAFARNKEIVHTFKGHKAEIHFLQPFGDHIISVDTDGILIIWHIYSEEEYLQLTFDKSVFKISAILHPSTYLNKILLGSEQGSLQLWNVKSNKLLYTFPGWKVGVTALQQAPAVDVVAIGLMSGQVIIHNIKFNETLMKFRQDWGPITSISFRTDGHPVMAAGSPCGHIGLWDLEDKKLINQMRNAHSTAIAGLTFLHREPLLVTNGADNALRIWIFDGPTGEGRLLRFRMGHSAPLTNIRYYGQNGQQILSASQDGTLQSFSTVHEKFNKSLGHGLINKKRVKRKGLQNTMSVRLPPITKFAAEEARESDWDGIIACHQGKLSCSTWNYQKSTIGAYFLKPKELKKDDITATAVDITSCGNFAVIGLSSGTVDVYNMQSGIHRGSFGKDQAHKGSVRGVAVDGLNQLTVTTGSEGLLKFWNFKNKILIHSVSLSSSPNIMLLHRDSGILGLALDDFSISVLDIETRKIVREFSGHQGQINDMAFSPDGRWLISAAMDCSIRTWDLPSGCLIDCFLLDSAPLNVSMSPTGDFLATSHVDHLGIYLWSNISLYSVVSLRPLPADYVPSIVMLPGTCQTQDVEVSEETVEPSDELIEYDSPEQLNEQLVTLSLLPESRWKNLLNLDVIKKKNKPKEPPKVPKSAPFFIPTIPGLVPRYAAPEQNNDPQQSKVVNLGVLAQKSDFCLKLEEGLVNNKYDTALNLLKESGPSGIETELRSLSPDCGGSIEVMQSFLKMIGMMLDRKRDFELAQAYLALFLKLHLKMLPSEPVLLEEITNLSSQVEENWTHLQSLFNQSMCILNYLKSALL
UniProt Q8N2E2: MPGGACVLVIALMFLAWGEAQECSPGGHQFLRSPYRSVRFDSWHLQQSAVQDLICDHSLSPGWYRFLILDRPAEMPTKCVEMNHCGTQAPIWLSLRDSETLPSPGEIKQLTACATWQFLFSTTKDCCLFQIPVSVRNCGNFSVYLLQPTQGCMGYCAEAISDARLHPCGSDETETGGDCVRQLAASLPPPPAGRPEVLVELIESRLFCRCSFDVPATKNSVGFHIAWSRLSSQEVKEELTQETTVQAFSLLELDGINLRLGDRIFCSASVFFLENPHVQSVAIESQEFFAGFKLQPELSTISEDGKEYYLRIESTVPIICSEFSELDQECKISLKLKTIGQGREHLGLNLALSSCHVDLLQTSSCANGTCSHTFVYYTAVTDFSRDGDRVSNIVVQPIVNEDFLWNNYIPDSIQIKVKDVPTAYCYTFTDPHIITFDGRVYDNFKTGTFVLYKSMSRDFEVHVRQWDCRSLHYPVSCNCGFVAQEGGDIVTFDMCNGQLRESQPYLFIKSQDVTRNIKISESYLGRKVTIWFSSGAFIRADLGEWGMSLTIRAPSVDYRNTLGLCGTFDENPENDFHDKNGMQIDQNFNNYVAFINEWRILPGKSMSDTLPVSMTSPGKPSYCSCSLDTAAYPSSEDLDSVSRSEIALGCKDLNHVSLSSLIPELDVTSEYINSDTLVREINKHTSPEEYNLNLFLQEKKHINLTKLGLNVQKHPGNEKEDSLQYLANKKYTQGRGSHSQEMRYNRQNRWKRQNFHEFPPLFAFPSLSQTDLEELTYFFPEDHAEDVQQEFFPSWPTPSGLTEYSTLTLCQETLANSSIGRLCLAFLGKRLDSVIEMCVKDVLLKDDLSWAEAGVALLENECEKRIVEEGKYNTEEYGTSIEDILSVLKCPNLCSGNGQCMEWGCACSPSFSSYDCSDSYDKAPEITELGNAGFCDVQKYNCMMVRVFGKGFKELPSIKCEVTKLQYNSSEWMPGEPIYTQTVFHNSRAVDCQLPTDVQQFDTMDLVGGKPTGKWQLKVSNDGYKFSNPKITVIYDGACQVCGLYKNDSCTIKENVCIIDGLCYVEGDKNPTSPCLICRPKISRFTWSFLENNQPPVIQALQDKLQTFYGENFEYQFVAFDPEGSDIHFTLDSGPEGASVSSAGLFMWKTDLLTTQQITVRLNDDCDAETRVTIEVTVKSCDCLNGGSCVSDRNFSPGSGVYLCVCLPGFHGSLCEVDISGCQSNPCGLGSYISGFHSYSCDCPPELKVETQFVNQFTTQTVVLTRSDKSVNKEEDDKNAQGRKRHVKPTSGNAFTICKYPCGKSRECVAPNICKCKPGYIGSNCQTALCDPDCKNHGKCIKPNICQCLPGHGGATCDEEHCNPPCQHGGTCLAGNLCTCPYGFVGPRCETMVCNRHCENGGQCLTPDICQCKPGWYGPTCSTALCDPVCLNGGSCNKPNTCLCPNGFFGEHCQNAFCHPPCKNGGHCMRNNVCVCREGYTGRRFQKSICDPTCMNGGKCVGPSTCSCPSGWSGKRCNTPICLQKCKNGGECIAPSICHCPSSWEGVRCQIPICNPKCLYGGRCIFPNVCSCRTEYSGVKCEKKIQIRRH
UniProt O95785: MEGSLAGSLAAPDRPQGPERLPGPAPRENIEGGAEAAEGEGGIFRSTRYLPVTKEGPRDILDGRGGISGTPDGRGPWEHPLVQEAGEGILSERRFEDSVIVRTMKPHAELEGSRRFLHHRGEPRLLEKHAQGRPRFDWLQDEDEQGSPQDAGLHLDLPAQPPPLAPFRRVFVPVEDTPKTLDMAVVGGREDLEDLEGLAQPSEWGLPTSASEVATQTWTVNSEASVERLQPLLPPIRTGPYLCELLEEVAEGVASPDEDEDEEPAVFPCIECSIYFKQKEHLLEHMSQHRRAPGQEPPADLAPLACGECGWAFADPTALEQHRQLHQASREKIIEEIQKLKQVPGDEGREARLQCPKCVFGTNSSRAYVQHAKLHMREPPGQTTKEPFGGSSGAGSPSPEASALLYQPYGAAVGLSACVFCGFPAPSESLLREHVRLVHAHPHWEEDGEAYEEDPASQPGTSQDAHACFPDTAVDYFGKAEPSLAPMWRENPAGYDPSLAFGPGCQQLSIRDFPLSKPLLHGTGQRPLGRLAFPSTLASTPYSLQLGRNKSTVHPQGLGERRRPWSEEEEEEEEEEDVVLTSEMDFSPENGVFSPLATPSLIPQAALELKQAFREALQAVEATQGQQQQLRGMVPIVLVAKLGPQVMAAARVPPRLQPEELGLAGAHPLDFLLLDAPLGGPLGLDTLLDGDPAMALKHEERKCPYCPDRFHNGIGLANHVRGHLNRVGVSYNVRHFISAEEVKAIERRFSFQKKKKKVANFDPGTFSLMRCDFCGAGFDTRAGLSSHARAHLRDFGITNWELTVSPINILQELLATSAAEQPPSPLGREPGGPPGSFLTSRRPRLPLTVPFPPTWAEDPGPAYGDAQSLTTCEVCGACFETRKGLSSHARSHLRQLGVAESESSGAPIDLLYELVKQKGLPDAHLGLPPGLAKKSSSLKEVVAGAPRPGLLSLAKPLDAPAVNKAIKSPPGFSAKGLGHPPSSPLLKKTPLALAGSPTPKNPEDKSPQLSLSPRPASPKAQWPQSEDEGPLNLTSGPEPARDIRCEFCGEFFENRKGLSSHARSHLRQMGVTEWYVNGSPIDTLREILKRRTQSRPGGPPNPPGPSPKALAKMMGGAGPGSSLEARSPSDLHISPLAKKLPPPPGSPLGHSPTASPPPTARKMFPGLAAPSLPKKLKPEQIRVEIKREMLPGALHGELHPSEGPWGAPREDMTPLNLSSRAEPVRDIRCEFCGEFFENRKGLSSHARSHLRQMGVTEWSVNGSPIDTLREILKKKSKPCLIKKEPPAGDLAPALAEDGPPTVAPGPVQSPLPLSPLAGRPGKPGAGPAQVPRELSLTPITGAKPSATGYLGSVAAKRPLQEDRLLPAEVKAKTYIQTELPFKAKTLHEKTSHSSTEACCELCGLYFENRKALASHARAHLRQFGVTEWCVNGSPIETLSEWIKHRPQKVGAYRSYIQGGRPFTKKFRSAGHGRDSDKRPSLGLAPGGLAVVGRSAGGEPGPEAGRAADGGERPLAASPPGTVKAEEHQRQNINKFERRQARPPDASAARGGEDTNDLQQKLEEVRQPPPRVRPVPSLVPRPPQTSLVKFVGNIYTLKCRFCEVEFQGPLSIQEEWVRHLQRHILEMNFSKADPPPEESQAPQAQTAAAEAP
UniProt Q14119: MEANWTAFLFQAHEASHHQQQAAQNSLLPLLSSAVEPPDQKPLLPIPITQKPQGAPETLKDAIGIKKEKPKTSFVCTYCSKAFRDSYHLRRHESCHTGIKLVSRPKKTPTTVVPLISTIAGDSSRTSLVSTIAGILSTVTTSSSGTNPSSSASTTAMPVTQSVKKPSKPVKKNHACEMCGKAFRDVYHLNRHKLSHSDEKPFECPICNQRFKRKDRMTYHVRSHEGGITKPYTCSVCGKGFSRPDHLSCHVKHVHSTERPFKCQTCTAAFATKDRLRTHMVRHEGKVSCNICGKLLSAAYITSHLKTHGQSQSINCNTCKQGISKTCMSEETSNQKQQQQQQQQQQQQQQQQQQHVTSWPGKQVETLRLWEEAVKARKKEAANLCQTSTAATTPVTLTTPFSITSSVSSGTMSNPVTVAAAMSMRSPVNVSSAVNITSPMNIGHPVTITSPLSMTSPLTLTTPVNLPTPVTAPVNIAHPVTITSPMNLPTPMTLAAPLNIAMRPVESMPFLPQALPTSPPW
UniProt Q4G0F5, whole entry, looked up: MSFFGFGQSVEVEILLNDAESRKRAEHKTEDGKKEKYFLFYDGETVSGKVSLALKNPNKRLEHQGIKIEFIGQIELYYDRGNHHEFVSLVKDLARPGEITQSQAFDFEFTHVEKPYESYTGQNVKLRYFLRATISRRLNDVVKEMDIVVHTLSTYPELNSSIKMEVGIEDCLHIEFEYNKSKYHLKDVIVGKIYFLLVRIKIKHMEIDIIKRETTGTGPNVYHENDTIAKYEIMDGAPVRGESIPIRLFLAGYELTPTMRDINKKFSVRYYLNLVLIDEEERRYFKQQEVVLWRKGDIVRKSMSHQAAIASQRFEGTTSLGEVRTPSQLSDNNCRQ
UniProt Q96GC9: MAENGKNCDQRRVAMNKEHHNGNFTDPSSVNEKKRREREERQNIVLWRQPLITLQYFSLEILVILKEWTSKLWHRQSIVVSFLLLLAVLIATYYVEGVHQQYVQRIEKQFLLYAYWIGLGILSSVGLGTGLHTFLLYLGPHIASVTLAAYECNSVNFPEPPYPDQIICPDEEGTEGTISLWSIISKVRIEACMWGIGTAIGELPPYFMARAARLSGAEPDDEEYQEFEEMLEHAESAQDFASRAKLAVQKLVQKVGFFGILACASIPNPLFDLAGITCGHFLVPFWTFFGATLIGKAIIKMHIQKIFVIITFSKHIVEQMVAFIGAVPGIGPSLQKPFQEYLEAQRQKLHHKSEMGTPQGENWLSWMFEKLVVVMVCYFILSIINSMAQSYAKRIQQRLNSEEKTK

What was measured:
Assay in all cases: log2 fold change, soluble protein after heating vs DMSO (PISA); higher = thermal stabilisation; K562 cells, 10 uM, 30 min; active = over 0.2 and 3.5 SD of the protein, either way, in both replicates (recomputed)
[1] = compound: CS(=O)(=O)c1ccc(-c2cnc(N)c(C(=O)Nc3ccccc3)n2)cc1
In short: (§1)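 K562 cells (2×10^6 cells/mL) were treated with 10 μM compound for 30 min, and aliquots were heated for 3 min over 48°C-58°C. Pooled aliquots were extracted in PBS with 0.5% NP-40 at 4°C, and the supernatant after 21,000xg for 90 min was measured by TMTpro 16plex LC-MS/MS with channel sums equalised. Reported thermal stability, relative to control samples and from duplicates, is a log2 fold change.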

crizotinib = compound: C[C@@H](Oc1cc(-c2cnn(C3CCNCC3)c2)cnc1N)c1c(Cl)ccc(F)c1Cl [crizotinib]
In short: as §1

[2] = compound: C[C@@H]1COCCN1C2=NC(=NC(=C2)C3(CC3)S(=O)(=O)C)C4=C5C=CNC5=CC=C4
In short: as §1

[3] = compound: C[C@H](C1=CC=C(C=C1)C(=O)NC2=C3C=CNC3=NC=C2)N
In short: as §1

duvelisib = compound: C[C@H](Nc1ncnc2nc[nH]c12)c1cc2cccc(Cl)c2c(=O)n1-c1ccccc1 [duvelisib]
In short: as §1

gandotinib = compound: Cc1cc(Nc2cc(CN3CCOCC3)c3nc(C)c(Cc4ccc(Cl)cc4F)n3n2)n[nH]1 [gandotinib]
In short: as §1

tozasertib = compound: Cc1cc(Nc2cc(N3CCN(C)CC3)nc(Sc3ccc(NC(=O)C4CC4)cc3)n2)n[nH]1 [tozasertib]
In short: as §1

[4] = compound: Cc1cc(SCc2sc(-c3ccc(C(F)(F)F)cc3)nc2C)ccc1OCC(=O)O
In short: as §1

doramapimod = compound: Cc1ccc(-n2nc(C(C)(C)C)cc2NC(=O)Nc2ccc(OCCN3CCOCC3)c3ccccc23)cc1 [doramapimod]
In short: as §1

ispinesib = compound: Cc1ccc(C(=O)N(CCCN)[C@@H](c2nc3cc(Cl)ccc3c(=O)n2Cc2ccccc2)C(C)C)cc1 [ispinesib]
In short: as §1

bafetinib = compound: Cc1ccc(NC(=O)c2ccc(CN3CC[C@H](N(C)C)C3)c(C(F)(F)F)c2)cc1Nc1nccc(-c2cncnc2)n1 [bafetinib]
In short: as §1

[5] = compound: Cc1cccc(CC(=O)N2CCc3c2ccc(-c2cn(C)c4ncnc(N)c24)c3F)n1
In short: as §1

nilotinib = compound: Cc1cn(-c2cc(NC(=O)c3ccc(C)c(Nc4nccc(-c5cccnc5)n4)c3)cc(C(F)(F)F)c2)cn1 [nilotinib]
In short: as §1

[6] = compound: Cc1nc(Nc2n[nH]c3c2CN(C(=O)N[C@H](CN(C)C)c2ccccc2)C3(C)C)c2sccc2n1
In short: as §1

dasatinib = compound: Cc1nc(Nc2ncc(C(=O)Nc3c(C)cccc3Cl)s2)cc(N2CCN(CCO)CC2)n1 [dasatinib]
In short: as §1

[7] = compound: Cc1ncc(-c2ccnc(Nc3ccc(S(C)(=O)=O)cc3)n2)n1C(C)C
In short: as §1

[8] = compound: Cn1cc(-c2ccc3c(c2)CCN3C(=O)Cc2cccc(C(F)(F)F)c2)c2c(N)ncnc21
In short: as §1

[9] = compound: Cn1cc(-c2ccc3nnc(C(F)(F)c4ccc5ncccc5c4)n3n2)cn1
In short: as §1

tipifarnib = compound: Cn1cncc1[C@@](N)(c1ccc(Cl)cc1)c1ccc2c(c1)c(-c1cccc(Cl)c1)cc(=O)n2C [tipifarnib]
In short: as §1

mubritinib = compound: FC(F)(F)c1ccc(/C=C/c2nc(COc3ccc(CCCCn4ccnn4)cc3)co2)cc1 [mubritinib]
In short: as §1

Measured: log2 fold change

WDR70 (UniProt Q9NW82)
inactive: [1] 0.015 | crizotinib 0.062 | [2] 0.093 | [3] -0.06 | duvelisib 0.02 | gandotinib -0.014 | tozasertib -0.005 | [4] 0.01 | doramapimod -0.029 | ispinesib 0.068 | bafetinib -0.039 | [5] 0.009 | nilotinib -0.009 | [6] 0.012 | dasatinib -0.035 | [7] 0.012 | [8] 0.003 | [9] -0.023 | tipifarnib -0.03 | mubritinib 0.039

WBP11 (UniProt Q9Y2W2)
inactive: [1] -0.032 | crizotinib 0.032 | [2] -0.038 | [3] -0.009 | duvelisib -0.006 | gandotinib -0.003 | tozasertib -0.008 | [4] -0.011 | doramapimod -0.026 | ispinesib 0.084 | bafetinib -0.034 | [5] 0.022 | nilotinib 0.008 | [6] 0.015 | dasatinib 0.043 | [7] -0.001 | [8] -0.017 | [9] -0.035 | tipifarnib 0.022 | mubritinib -0.015

VTN (UniProt P04004)
inactive: [1] -0.134 | crizotinib -0.078 | [2] -0.204 | [3] 0.003 | duvelisib -0.297 | tozasertib 0.01 | [4] 0.009 | doramapimod 0.035 | ispinesib -0.074 | bafetinib 0.044 | nilotinib 0.076 | [6] 0.067 | dasatinib 0.09 | [7] 0.224 | [8] 0.059 | [9] -0.085 | tipifarnib 0.149 | mubritinib -0.197

VRK3 (UniProt Q8IV63)
inactive: [1] -0.07 | crizotinib 0.089 | [2] 0.21 | [3] 0.153 | gandotinib -0.035 | tozasertib 0.149 | doramapimod 0.023 | ispinesib -0.149 | bafetinib -0.028 | [5] 0.047 | nilotinib -0.04 | [6] 0.056 | [7] -0.162 | [8] -0.092 | [9] -0.001 | tipifarnib -0.033 | mubritinib 0.068

WDR34 (UniProt Q96EX3)
inactive: [1] 0.019 | crizotinib -0.062 | [2] -0.014 | [3] -0.037 | duvelisib 0.1 | gandotinib -0.044 | [4] 0.133 | doramapimod 0.037 | ispinesib -0.01 | bafetinib 0.005 | [5] -0.043 | nilotinib -0.065 | [6] 0.099 | dasatinib 0.025 | [7] -0.045 | [8] 0.026 | [9] -0.027 | tipifarnib 0.071 | mubritinib -0.005

VPS35 (UniProt Q96QK1)
inactive: [1] 0.018 | crizotinib -0.09 | [2] 0.092 | [3] -0.068 | duvelisib 0.034 | gandotinib -0.118 | tozasertib -0.025 | [4] 0.034 | doramapimod -0.022 | ispinesib -0.013 | bafetinib -0.066 | [5] 0.032 | nilotinib -0.016 | [6] -0.02 | dasatinib -0.044 | [7] -0.034 | [8] 0.023 | [9] -0.007 | tipifarnib -0.037 | mubritinib 0.066

WDR36 (UniProt Q8NI36)
inactive: [1] 0.033 | crizotinib -0.046 | [2] -0.109 | [3] 0.187 | duvelisib -0.047 | gandotinib 0.132 | tozasertib -0.039 | [4] 0.037 | doramapimod 0.096 | ispinesib -0.027 | bafetinib 0.075 | [5] -0.015 | nilotinib 0.024 | [6] 0.078 | dasatinib -0.052 | [7] 0.108 | [8] -0.13 | [9] -0.085 | tipifarnib 0.015 | mubritinib -0.038

VWDE (UniProt Q8N2E2)
inactive: [1] 0.016 | crizotinib 0 | [2] -0.036 | [3] 0.064 | duvelisib -0.078 | gandotinib 0.086 | tozasertib 0.085 | [4] 0.071 | doramapimod 0.051 | ispinesib 0.006 | bafetinib 0.023 | [5] -0.108 | nilotinib -0.033 | [6] 0.029 | dasatinib -0.016 | [7] -0.002 | [8] -0.087 | [9] -0.047 | tipifarnib 0.103 | mubritinib 0.032

WRAP53 (UniProt Q9BUR4)
inactive: [1] 0.012 | crizotinib -0.096 | [2] -0.111 | [3] 0.134 | duvelisib -0.07 | gandotinib 0.161 | tozasertib -0.007 | [4] 0.014 | doramapimod 0.008 | ispinesib -0.043 | bafetinib -0.022 | [5] -0.007 | nilotinib 0.156 | [6] 0.021 | dasatinib 0.024 | [7] 0.172 | [8] -0.073 | [9] -0.07 | tipifarnib 0.065 | mubritinib -0.059

WDR6 (UniProt Q9NNW5)
inactive: [1] 0 | crizotinib -0.035 | [2] -0.02 | [3] 0.055 | duvelisib 0.002 | gandotinib -0.038 | tozasertib -0.039 | [4] 0.048 | doramapimod 0.014 | ispinesib 0.032 | bafetinib -0.007 | [5] 0.078 | nilotinib -0.017 | [6] 0.024 | dasatinib -0.045 | [7] -0.001 | [8] -0.025 | [9] -0.023 | tipifarnib -0.01 | mubritinib 0.011

WIZ isoform 3 (UniProt O95785)
inactive: [1] 0.043 | crizotinib -0.103 | [2] 0.043 | [3] 0.087 | duvelisib -0.025 | gandotinib -0.191 | tozasertib -0.041 | [4] -0.011 | doramapimod 0.051 | ispinesib -0.054 | bafetinib 0.15 | [5] 0.02 | nilotinib -0.171 | [6] 0.1 | dasatinib -0.02 | [7] 0 | [8] 0 | [9] -0.052 | tipifarnib -0.127 | mubritinib 0.035

WDR13 (UniProt Q9H1Z4)
inactive: [1] 0.02 | crizotinib 0.063 | [2] 0.073 | [3] -0.011 | duvelisib 0.101 | gandotinib 0.064 | tozasertib -0.002 | [4] -0.011 | doramapimod 0.017 | ispinesib 0.004 | bafetinib -0.018 | [5] -0.059 | nilotinib -0.11 | [6] -0.126 | dasatinib 0.024 | [7] -0.055 | [8] 0.041 | [9] 0.073 | tipifarnib -0.066 | mubritinib 0.022

VEZF1 (UniProt Q14119)
inactive: [1] -0.068 | crizotinib 0.169 | [2] -0.324 | [3] 0.205 | duvelisib -0.065 | gandotinib 0.01 | [4] 0.011 | doramapimod 0.167 | ispinesib -0.032 | bafetinib 0.176 | [5] 0.057 | nilotinib -0.019 | [6] 0.029 | dasatinib 0.371 | [7] -0.009 | [8] -0.062 | [9] -0.134 | tipifarnib 0.22 | mubritinib -0.184

VPS26B (UniProt Q4G0F5)
inactive: [1] 0.024 | crizotinib -0.022 | [2] -0.01 | [3] -0.015 | duvelisib 0.004 | gandotinib -0.068 | tozasertib -0.021 | [4] 0.019 | doramapimod -0.008 | ispinesib -0.018 | bafetinib -0.076 | [5] 0.007 | nilotinib 0.001 | [6] -0.018 | dasatinib -0.086 | [7] -0.02 | [8] 0.038 | [9] -0.003 | tipifarnib -0.02 | mubritinib 0.08

WDR77 (UniProt Q9BQA1)
inactive: [1] -0.022 | crizotinib -0.101 | [2] 0.007 | [3] -0.017 | duvelisib 0.188 | gandotinib -0.05 | tozasertib -0.021 | [4] -0.031 | doramapimod 0.012 | ispinesib 0.019 | bafetinib -0.001 | [5] 0.001 | nilotinib -0.012 | [6] 0.03 | dasatinib 0.054 | [7] -0.014 | [8] 0.044 | [9] -0.007 | tipifarnib -0.045 | mubritinib 0.031

VMP1 (UniProt Q96GC9)
inactive: [1] 0 | crizotinib 0.068 | [2] -0.19 | [3] 0.006 | duvelisib -0.017 | gandotinib -0.019 | tozasertib -0.01 | [4] -0.024 | doramapimod 0.02 | ispinesib -0.011 | bafetinib -0.064 | [5] -0.014 | nilotinib 0.07 | [6] -0.027 | dasatinib 0.014 | [7] 0.053 | [8] 0.015 | [9] 0.012 | tipifarnib 0.04 | mubritinib 0.033
